In patent US12565505B2, “mTORC modulators and uses thereof” (Aeovian Pharmaceuticals, Inc., priority 2019, dated 2026):

Target: mTORC1 (Homo sapiens, UniProt P42345+P62942)
Assay: Inhibition assay for mTORC1: phosphorylation of pS6K at Thr389, AlphaLISA SureFire in PC3 cells
Format: cell-based
Details: treated 24 hours, Rapamycin analogs substituted at C40

pIC50 mTORC1: A (PIC50 for mTORC1 of >9.5 as A)
Structure (SMILES): COC1CC2CCC(C)C(O)(O2)C(=O)C(=O)N2CCCCC2C(=O)OC(C(C)CC2CCC(OC(=O)NCCCc3ccccc3)C(OC)C2)CC(=O)C(C)C=C(C)C(O)C(OC)C(=O)C(C)CC(C)C=CC=CC=C1C (stereo not shown)

Structures were worked out from names or drawings and are uncertain.
